Data from article PMC4202265.

The chains behind the UniProt entries cited, without tags or fusion partners. Where a name states a change or a piece, a line headed by the entry shows the natural chain unless it says otherwise. Residues count along the entry.
UniProt P60033: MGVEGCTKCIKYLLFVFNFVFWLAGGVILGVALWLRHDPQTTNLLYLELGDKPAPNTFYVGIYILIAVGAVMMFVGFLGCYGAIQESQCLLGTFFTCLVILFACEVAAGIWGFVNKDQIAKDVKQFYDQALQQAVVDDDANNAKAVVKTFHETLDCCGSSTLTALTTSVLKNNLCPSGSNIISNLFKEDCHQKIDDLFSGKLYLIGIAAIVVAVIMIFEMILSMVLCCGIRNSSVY
UniProt O92972, residues 384-746: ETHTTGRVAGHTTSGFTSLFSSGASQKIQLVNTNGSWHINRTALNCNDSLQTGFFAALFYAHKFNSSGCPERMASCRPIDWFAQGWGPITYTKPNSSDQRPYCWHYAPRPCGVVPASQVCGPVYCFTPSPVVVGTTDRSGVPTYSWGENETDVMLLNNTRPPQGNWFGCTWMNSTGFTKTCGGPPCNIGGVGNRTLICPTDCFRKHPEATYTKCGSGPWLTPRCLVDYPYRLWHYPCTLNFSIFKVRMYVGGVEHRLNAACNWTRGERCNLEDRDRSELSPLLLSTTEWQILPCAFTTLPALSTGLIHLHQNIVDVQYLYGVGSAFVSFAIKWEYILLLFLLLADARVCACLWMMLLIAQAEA

Target: recombinant CD81 large extracellular loop (LEL) fused to maltose binding protein (UniProt P60033)
Test: pull-down; MBP–CD81 (3.75 µg) incubated with 450 µl detergent-free lysate of transduced Huh7 or Huh7 FK5.1neo cells, 4 °C, 1 h; captured on amylose resin in TNE buffer, washed; bound material immunoblotted for E2 and core; only the target purified

Question: How did the binding turn out when “HCV envelope protein E2, genotype 1b, expressed from the C-E1-E2-p7 cassette of baculovirus BacC-p7(1b) (from UniProt O92972 384-746)” was run?
Answer: binds

Results are given in words; binding and its absence hold for the method and conditions named. In cells and extracts the contact can be indirect. A result given as binding can be weak or reduced; the word gives no strength.
